Our source for the cell viability values is the supplement of paper PMC12873370.

Assay [1] concerns MEPP (mouse ovarian epithelium Trp53/Pten KO). As to the kind of experiment: cell viability relative to untreated (fraction); higher = less growth inhibition. As to conditions: 5 µM; 3 days.
Assay [2] concerns PREPP (mouse prostate epithelium Trp53/Pten KO). The assay is described as above. As to conditions: 5 µM; 3 days.

Values joined by “and” are separate entries in the source; they are usually repeats but may differ in a detail not shown here. Equal entries are not always repeated. The list shows a part of the results. Single values are uncertain, as repeats are few or missing.

As to `COc1cc(C(=O)O[C@H]2[C@@H]3C=CO[C@@H](O[C@@H]4O[C@H](CO)[C@@H](O)[C@H](O)[C@H]4O)[C@@H]3[C@@]3(CO)O[C@@H]23)ccc1O`, the cell viability in assay [1] turned out to be 0.998; in assay [2], 0.755.
In the case of `NCCP(=O)(O)O`, the cell viability in assay [1] was found to be 0.847; in assay [2], 1.14.
`C=C[C@@]12CN(C)[C@H]3C[C@]14C(=Nc1ccccc14)[C@@H]1C[C@@H]2[C@@H]3CO1`: the values for the cell viability in assay [1] and in assay [2] were 1.14 and 0.897, respectively.
For `C[C@H]1CC[C@@H]2N(C1)C[C@H]1[C@@H]3C[C@H]4[C@@H](CC(=O)[C@H]5C[C@@H](O)CC[C@@]54C)[C@@H]3CC[C@H]1[C@]2(C)O`, the values for the cell viability in assay [1] and in assay [2] were 1.04 and 1.05, respectively.
For `CC(=O)O[C@H]1[C@H]2O[C@]23[C@@H]2CC[C@@H]4C[C@@H](O)CC[C@]4(C)[C@H]2CC[C@]3(C)[C@H]1c1ccc(=O)oc1`, the values for the cell viability in assay [1] and in assay [2] were 1.37 and 0.837, respectively.
In the case of `C[C@H]1O[C@H](O[C@H]2[C@H](O)[C@@H](O)[C@@H](O)[C@H](O)[C@@H]2O)[C@@H](N)C[C@@H]1NC(=N)C(=O)O`, the cell viability in assay [1] and in assay [2] was 1.17 throughout.
`C=C(C)[C@H]1Cc2c(ccc3c2O[C@@H]2COc4cc(OC)c(OC)cc4[C@@H]2C3=O)O1`: the values for the cell viability in assay [1] and in assay [2] were 0.669 and 0.833, respectively.
With `C1=C2CCCN[C@H]2[C@@H]2C[C@H]1[C@H]1CCCCN1C2`, the cell viability is 1.06 in assay [1] and 0.821 in assay [2].
For `COc1ccc(C=O)cc1`, the cell viability came out at 1.17 in assay [1] and 1.01 in assay [2].
On to `C[C@H]1CCCC(=O)CCC/C=C/c2cc(O)cc(O)c2C(=O)O1`, for which the cell viability in assay [1] was found to be 0.931; in assay [2], 0.893.
On to `Oc1cc(Cl)ccc1Oc1ccc(Cl)cc1Cl`, for which the cell viability in assay [1] was found to be 1.01; in assay [2] it was 0.742.
For the compound `Cc1cc2c(C(C)C)c(O)c(O)c(C=O)c2c(O)c1-c1c(C)cc2c(C(C)C)c(O)c(O)c(C=O)c2c1O`, the cell viability is 1.14 and 0.987 in assay [1]; 0.816 and 0.854 in assay [2].
With `C[C@@H]1CC[C@]2(NC1)O[C@H]1C[C@H]3[C@@H]4CC=C5C[C@@H](O)CC[C@]5(C)[C@H]4CC[C@]3(C)[C@H]1[C@@H]2C`, the cell viability came to 1.18 in assay [1] and 0.905 in assay [2].
Consider `N#CCc1c[nH]c2ccccc12`, for which the results for the cell viability in assay [1] and in assay [2] were 1.02 and 0.949, respectively.
`COc1cc([C@@H]2c3cc4c(cc3[C@H](O)[C@H]3COC(=O)[C@H]23)OCO4)cc(OC)c1OC`: the cell viability in assay [1] amounted to 0.51; in assay [2] it was 0.779.
With `NCC(O)c1ccc(O)cc1` (stereo not drawn), the cell viability in assay [1] amounted to 0.893; in assay [2], 0.962.
Take `N#C[C@H](O[C@@H]1O[C@H](CO[C@@H]2O[C@H](CO)[C@@H](O)[C@H](O)[C@H]2O)[C@@H](O)[C@H](O)[C@H]1O)c1ccccc1`: the cell viability in assay [1] turned out to be 0.957; in assay [2], 1.32.
As for `NCCc1c[nH]c2ccccc12`, the cell viability in assay [1] is 0.991; in assay [2] it was 0.986.
In the case of `c1c2c(cc3c1OCO3)-c1cc3ccc4c(c3c[n+]1CC2)OCO4`, the cell viability in assay [1] was 1.01; in assay [2] it was 0.859.
In the case of `O=c1ccc2cc(O[C@@H]3O[C@H](CO)[C@@H](O)[C@H](O)[C@H]3O)c(O)cc2o1`, the cell viability was determined as 0.827 in assay [1] and 1 in assay [2].
For `CC(C)(C)NCC(O)c1cc(Cl)c(N)c(Cl)c1` (stereo not drawn), the cell viability in assay [1] was 0.937; in assay [2], 0.897.
Turning to `COc1ccc(C=O)cc1OC`, the values for the cell viability in assay [1] and in assay [2] were 1.02 and 0.82, respectively.
For `CO[C@H]1C[C@H](O[C@H]2CC[C@@]3(C)[C@H](CC[C@@H]4[C@@H]3CC[C@]3(C)[C@@H](C5=CC(=O)OC5)[C@@H](OC(C)=O)C[C@]43O)C2)O[C@@H](C)[C@@H]1O`, the cell viability amounted to 1.03 in assay [1] and 0.936 in assay [2].
Take `CN(CC(=O)O)C(=N)NP(=O)(O)O`: the cell viability in assay [1] turned out to be 0.811; in assay [2], 0.845.
As for `NCCc1ccc(O)cc1`, the cell viability in assay [1] came out at 1.12; in assay [2], 0.81.
The matching figures for `CCN1CC2(OC(=O)c3ccccc3NC(C)=O)CCC(OC)C34C1C(CC23)C1(O)CC(OC)C2CC4C1(O)C2OC` (stereo not drawn): 0.802 and 0.863.
`CC(=O)O[C@H]1C(=O)[C@@]2(C)[C@H]([C@H](OC(=O)c3ccccc3)[C@]3(O)C[C@H](O)C(C)=C1C3(C)C)[C@]1(OC(C)=O)CO[C@@H]1C[C@@H]2O`: the cell viability in assay [1] amounted to 0.867; in assay [2], 0.881.
Take `COc1cccc2c1cc([N+](=O)[O-])c1c(C(=O)O)cc3c(c12)OCO3`: the cell viability in assay [1] was 0.98; in assay [2], 0.97.
The matching figures for `COc1cc2c(cc1OC)[C@@]13CCN4CC5=CCO[C@H]6CC(=O)N2[C@H]1[C@H]6[C@H]5C[C@H]43`: 1.09 and 0.811.
The matching figures for `CC[C@H]1CN2CC[C@H]1C[C@@H]2[C@@H](O)c1ccnc2ccc(OC)cc12`: 0.844 and 0.993.
Consider `COc1cccc(C=O)c1OC`, for which the cell viability worked out at 0.826 in assay [1] and 1.06 in assay [2].
As to `O=c1[nH]c2ccccc2o1`, the cell viability in assay [1] and in assay [2] was 1.03 each time.
As to `CC(C)(C)[C@]1(O)CC2OC(=O)CC23C(=O)OC2OC(=O)[C@H](O)C231` (stereo partly drawn), the cell viability in assay [1] is 1.14; in assay [2] it was 0.889.
With `COC[C@@]12CC[C@H](OC)[C@]34C([C@H]([C@H](OC)[C@H]13)[C@]1(O)[C@H]3[C@@H](OC(=O)c5ccccc5)[C@](O)(C[C@H]34)[C@@H](OC)[C@@H]1O)N(C)C2`, the cell viability in assay [1] was determined as 0.992; in assay [2] it was 0.736.
